The targets with a hit were mostly taken out for another list; the other results follow. This is a noisy data set. The entries are a selection whose mix differs from that of the whole data set.
Each target was assayed with COC(=O)/C=C/c1ccccc1 [methyl cinnamate] (assay: log2 ratio of iodoacetamide-alkyne labeling of the cysteine site, DMSO over compound (competition); higher = stronger covalent engagement of the cysteine by the compound, active = 1 or more). Settings: 500 µM; treatment time 1 h; system: HEK293T cell lysate.
Outline: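 After 1 h at ambient temperature with vehicle or electrophile (500 µM), HEK293T lysate (2 mg/mL) was labelled for 1 h with iodoacetamide alkyne and clicked to sCIP-TMT reagents. Pooled samples were trypsin-digested overnight at 37 °C, streptavidin-enriched, acid-eluted and analysed by Orbitrap Eclipse LC-MS/MS with FAIMS, then quantified in FragPipe over three replicates with duplicate channels. A cysteine's log2 competition ratio is its mean control-channel over mean compound-channel reporter intensity. Cysteines quantified in only one replicate were not included.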

Amino acid sequences for entries named in this document (tags omitted). A change or cut given only in a name is not applied to a line headed by its entry.
UniProt Q69YN2: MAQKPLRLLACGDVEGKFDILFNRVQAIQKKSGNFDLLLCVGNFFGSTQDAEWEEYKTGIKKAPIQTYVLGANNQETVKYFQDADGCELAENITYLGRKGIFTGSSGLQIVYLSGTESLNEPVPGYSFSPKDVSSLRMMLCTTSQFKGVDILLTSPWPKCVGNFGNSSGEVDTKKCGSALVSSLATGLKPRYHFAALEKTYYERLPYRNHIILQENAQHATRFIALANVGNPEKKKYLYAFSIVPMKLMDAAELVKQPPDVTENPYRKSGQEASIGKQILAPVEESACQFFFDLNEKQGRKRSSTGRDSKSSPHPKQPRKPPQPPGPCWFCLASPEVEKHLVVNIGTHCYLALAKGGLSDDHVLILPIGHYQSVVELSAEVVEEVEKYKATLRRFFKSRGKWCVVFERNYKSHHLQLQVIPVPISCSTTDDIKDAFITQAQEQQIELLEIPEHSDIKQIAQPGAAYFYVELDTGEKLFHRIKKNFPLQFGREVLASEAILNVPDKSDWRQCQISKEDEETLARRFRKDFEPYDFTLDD
UniProt Q5JRX3: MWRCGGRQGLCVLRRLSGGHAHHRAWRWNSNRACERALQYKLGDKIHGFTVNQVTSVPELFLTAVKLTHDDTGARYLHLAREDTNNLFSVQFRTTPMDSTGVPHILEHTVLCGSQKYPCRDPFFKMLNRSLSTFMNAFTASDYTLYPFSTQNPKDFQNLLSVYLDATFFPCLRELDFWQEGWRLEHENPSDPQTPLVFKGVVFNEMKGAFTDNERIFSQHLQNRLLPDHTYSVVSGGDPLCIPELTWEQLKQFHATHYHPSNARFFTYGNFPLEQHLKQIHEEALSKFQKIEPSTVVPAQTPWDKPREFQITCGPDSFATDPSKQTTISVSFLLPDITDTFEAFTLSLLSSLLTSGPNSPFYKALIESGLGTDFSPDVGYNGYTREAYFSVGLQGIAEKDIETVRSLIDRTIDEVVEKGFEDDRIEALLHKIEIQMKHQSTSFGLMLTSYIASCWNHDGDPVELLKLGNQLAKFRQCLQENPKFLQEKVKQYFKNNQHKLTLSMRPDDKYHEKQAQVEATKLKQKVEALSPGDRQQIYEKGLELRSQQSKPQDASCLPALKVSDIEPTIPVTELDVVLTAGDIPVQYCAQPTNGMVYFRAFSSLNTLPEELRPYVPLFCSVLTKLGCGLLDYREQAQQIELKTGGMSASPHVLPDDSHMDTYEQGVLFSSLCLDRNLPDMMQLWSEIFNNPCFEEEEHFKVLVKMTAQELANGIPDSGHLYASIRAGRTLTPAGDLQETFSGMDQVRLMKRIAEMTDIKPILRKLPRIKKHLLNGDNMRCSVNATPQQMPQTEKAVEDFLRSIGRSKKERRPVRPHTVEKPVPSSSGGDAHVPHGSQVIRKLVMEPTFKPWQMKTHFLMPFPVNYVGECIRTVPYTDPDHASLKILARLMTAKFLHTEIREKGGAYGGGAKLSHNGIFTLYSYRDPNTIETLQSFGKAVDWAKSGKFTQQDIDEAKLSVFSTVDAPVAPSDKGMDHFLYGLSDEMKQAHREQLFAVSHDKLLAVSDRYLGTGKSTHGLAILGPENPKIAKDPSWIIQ
UniProt Q6PIW4: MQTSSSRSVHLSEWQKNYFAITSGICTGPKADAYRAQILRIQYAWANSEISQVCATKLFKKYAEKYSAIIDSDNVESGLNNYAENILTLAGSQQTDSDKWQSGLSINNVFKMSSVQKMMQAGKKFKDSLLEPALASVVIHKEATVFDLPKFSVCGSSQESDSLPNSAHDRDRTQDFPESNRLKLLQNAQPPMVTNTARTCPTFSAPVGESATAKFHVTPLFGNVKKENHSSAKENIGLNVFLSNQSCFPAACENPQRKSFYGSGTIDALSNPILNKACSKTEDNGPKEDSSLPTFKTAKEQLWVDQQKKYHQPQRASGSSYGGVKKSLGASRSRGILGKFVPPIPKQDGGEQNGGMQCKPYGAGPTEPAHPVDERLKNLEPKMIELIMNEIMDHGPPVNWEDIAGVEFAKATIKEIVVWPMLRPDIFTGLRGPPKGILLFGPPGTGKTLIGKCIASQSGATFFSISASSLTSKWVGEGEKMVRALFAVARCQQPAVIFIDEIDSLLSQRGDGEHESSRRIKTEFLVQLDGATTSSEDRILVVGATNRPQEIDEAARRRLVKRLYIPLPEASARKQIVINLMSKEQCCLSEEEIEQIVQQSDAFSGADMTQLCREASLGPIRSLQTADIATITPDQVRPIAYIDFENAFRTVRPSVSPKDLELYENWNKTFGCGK
UniProt Q5TC12: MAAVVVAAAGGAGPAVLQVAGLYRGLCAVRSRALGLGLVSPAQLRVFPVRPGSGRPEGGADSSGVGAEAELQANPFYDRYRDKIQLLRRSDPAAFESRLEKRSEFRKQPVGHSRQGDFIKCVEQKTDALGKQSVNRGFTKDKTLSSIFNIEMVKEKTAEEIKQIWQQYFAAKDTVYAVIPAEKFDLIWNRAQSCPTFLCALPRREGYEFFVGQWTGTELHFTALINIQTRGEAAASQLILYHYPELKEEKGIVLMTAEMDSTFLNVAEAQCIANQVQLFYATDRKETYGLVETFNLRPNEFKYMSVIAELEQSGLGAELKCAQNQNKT
UniProt Q66K74: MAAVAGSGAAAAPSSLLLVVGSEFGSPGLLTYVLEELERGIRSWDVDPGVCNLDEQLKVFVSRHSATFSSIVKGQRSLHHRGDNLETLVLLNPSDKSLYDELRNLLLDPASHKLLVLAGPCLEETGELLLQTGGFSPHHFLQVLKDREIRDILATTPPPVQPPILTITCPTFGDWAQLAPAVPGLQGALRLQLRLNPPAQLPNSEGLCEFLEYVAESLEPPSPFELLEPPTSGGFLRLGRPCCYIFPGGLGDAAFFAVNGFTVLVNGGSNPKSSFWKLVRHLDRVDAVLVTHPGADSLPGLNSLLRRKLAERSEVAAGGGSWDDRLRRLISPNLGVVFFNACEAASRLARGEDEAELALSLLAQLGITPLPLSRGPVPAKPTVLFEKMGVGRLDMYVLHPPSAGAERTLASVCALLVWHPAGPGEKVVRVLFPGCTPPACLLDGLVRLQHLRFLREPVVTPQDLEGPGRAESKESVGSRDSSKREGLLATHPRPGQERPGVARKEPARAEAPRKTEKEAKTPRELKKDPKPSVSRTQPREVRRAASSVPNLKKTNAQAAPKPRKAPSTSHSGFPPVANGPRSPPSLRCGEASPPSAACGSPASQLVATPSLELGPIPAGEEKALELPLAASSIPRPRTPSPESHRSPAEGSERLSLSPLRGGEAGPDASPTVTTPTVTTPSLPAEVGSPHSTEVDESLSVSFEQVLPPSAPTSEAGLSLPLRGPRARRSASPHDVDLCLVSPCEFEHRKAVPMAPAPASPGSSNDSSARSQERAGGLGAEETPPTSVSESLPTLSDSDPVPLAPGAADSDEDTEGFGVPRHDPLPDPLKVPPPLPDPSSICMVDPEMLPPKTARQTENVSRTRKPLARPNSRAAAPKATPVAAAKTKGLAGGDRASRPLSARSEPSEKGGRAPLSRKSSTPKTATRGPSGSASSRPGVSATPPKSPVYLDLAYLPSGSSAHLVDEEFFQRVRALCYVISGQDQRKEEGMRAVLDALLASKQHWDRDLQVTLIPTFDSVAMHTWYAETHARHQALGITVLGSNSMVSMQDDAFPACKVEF
UniProt Q5VUA4: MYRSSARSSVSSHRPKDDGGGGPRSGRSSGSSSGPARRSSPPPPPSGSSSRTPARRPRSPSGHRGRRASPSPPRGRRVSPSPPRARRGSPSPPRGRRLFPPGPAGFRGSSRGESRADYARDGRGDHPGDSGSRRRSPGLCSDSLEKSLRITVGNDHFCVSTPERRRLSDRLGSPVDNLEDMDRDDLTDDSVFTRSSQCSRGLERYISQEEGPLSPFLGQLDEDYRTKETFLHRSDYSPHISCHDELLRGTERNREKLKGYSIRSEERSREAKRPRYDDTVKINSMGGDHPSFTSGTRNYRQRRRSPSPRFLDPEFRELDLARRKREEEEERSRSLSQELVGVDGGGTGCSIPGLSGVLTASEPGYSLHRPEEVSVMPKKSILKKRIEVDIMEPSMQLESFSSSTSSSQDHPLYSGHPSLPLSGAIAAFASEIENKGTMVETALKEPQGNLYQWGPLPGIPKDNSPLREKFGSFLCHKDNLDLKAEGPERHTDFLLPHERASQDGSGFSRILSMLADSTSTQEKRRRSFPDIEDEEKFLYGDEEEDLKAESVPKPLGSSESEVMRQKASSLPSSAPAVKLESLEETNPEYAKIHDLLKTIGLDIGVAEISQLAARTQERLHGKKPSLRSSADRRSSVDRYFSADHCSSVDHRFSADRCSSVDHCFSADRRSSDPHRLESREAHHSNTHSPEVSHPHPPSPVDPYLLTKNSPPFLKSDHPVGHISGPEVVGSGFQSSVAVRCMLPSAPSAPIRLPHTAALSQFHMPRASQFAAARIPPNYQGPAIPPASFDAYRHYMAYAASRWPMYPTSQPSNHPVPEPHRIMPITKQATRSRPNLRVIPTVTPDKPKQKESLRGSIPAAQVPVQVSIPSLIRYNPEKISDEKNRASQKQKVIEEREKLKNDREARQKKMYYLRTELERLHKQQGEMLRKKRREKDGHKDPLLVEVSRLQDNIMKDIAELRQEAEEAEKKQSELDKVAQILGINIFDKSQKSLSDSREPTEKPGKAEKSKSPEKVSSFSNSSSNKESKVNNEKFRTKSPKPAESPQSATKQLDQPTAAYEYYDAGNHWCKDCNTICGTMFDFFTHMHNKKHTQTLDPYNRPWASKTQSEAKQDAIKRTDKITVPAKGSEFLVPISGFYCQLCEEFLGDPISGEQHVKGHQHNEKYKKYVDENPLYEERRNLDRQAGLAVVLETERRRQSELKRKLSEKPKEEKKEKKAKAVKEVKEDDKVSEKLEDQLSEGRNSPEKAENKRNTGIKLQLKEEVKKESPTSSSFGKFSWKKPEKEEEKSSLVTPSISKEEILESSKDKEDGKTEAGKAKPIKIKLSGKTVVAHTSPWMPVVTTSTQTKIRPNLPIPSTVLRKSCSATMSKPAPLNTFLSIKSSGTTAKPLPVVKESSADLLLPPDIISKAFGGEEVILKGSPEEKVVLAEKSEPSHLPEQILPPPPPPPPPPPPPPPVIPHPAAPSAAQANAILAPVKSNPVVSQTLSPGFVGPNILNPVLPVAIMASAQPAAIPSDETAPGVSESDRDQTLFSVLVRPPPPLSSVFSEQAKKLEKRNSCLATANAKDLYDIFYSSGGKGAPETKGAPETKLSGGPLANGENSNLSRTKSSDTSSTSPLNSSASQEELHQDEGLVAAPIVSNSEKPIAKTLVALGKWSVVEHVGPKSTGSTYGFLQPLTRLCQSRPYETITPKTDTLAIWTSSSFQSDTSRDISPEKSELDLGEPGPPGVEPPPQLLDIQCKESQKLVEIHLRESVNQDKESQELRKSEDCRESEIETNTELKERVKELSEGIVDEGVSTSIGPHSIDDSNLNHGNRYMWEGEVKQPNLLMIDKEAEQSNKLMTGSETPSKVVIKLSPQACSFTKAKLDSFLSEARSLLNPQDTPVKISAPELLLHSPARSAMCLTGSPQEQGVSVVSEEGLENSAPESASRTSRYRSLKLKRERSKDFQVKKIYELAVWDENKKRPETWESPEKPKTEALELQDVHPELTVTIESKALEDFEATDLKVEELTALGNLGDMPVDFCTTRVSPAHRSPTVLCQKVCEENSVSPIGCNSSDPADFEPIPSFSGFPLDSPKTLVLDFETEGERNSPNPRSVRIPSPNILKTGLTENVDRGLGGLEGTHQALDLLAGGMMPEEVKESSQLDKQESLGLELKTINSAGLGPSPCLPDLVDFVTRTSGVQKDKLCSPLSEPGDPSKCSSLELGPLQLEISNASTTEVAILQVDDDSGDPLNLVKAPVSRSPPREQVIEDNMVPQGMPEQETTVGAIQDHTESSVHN
UniProt Q6UVJ0: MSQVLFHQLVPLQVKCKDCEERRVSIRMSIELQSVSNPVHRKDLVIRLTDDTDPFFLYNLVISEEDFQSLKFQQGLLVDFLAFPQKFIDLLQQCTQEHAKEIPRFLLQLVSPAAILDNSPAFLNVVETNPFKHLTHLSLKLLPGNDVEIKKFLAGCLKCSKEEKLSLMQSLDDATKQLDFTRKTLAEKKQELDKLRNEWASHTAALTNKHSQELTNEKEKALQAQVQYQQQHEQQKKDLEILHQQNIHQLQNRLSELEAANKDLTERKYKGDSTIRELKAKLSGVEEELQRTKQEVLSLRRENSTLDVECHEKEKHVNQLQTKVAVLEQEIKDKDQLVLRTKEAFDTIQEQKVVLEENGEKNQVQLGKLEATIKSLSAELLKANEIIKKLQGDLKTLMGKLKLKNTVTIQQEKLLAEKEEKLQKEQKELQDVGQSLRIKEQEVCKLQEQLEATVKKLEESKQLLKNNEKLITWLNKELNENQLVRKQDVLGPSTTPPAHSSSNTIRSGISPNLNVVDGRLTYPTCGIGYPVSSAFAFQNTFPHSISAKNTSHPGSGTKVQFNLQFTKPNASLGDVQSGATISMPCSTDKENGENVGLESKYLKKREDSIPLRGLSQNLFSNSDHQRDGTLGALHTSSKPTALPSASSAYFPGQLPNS

log2 ratio of iodoacetamide-alkyne labeling, inactive:
CWF19L1 C160 (UniProt Q69YN2) 0.13
PITRM1 C241 (UniProt Q5JRX3) -0.0292
NCAPH2 C309 (UniProt Q6IBW4) 0.264
WDR73 C259 (UniProt Q6P4I2) -0.0727
CDCA2 C188 (UniProt Q69YH5) 0.307
BEND3 C95 (UniProt Q5T5X7) 0.27
GIGYF2 C573 (UniProt Q6Y7W6) 0.292
UniProt Q5TAX3_C994 0.111
RRP12 C799 (UniProt Q5JTH9) 0.104
FIGNL1 C200 (UniProt Q6PIW4) 0.276
ATPAF1 C121 (UniProt Q5TC12) 0.478
MAP1S C841 (UniProt Q66K74) 0.32
ZNF318 C2168 (UniProt Q5VUA4) 0.287
NFXL1 C528 (UniProt Q6ZNB6) 0.219
SASS6 C525 (UniProt Q6UVJ0) -0.0873
UniProt Q5THK1_C92 0.578
CEP170 C30 (UniProt Q5SW79) 0.356
DENND4C C126 (UniProt Q5VZ89) 0.188
FAM91A1 C141 (UniProt Q658Y4) 0.17
AARS2 C609 (UniProt Q5JTZ9) -0.0443
GIGYF2 C938 (UniProt Q6Y7W6) 0.405

Random excerpt: 2 entries already listed, in no set order.
log2 ratio of iodoacetamide-alkyne labeling, inactive:
UniProt Q5TAX3_C994 0.111
UniProt Q5THK1_C92 0.578

From the supplement of paper PMC11006884
